Experimental data: the supplement of paper PMC10849652
This is one part of the list.

Chains of the proteins cited; added tags and fusions are not shown. Lines headed by an entry give the natural chain unless they say otherwise; changes in a name come on top.
UniProt O14950, whole entry, looked up: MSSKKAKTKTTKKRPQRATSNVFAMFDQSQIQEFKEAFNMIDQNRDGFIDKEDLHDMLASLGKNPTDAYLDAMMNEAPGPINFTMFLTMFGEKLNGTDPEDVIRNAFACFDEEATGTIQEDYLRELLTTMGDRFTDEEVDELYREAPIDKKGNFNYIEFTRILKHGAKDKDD
UniProt Q8TBE9: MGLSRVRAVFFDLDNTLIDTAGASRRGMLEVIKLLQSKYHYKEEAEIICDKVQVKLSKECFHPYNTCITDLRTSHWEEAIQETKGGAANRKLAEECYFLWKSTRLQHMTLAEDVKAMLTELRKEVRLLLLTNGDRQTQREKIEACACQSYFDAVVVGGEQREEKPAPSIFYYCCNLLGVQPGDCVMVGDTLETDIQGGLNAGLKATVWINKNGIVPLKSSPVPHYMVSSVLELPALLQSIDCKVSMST
UniProt Q8NI08: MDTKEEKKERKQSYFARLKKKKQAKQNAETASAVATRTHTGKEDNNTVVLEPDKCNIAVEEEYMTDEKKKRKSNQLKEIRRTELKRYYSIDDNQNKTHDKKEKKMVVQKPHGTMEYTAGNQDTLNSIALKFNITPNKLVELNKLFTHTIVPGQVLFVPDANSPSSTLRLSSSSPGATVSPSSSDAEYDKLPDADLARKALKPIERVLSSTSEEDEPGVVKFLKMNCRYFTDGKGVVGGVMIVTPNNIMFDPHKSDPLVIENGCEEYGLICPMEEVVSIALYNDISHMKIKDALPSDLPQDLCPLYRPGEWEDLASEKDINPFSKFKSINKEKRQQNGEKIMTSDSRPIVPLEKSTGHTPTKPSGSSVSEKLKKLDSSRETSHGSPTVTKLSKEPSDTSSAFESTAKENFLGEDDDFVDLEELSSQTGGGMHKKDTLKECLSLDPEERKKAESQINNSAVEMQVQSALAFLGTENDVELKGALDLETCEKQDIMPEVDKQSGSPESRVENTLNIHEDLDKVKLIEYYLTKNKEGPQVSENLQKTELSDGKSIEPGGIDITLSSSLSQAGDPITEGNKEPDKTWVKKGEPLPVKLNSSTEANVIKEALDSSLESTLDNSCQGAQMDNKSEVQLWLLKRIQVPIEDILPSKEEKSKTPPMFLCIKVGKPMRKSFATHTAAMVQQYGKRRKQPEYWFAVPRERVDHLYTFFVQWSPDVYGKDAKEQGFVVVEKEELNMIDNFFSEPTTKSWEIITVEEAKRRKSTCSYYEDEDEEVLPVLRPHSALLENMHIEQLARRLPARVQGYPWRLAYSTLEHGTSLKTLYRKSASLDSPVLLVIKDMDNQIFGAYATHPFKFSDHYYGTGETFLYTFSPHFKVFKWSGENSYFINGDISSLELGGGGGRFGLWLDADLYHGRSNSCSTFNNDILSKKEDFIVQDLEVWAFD
UniProt P19338, whole entry, looked up: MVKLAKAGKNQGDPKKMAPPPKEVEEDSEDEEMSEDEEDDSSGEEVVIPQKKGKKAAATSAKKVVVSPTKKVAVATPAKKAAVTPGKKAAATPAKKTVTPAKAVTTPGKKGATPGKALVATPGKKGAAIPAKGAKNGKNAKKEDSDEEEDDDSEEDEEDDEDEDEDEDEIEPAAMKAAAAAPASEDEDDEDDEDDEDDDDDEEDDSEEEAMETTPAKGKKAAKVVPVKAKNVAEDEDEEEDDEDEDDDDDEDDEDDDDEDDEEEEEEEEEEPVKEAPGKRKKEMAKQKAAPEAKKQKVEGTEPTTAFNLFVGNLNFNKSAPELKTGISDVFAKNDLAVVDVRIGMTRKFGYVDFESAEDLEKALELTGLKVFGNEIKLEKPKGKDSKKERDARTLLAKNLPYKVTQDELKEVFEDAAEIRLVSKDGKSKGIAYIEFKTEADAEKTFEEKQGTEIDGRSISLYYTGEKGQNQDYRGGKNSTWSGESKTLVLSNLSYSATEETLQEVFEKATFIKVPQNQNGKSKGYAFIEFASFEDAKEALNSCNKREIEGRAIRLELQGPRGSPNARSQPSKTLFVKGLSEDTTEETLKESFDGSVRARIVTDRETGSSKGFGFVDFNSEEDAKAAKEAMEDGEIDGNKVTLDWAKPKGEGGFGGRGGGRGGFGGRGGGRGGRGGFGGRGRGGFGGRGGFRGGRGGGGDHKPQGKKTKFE
UniProt P61599, whole entry, looked up: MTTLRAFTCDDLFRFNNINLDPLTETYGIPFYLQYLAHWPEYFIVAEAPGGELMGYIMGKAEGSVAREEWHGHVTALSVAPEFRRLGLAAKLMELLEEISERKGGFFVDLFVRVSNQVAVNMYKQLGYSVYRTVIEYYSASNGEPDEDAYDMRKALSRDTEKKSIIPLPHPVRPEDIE
UniProt Q6XQN6: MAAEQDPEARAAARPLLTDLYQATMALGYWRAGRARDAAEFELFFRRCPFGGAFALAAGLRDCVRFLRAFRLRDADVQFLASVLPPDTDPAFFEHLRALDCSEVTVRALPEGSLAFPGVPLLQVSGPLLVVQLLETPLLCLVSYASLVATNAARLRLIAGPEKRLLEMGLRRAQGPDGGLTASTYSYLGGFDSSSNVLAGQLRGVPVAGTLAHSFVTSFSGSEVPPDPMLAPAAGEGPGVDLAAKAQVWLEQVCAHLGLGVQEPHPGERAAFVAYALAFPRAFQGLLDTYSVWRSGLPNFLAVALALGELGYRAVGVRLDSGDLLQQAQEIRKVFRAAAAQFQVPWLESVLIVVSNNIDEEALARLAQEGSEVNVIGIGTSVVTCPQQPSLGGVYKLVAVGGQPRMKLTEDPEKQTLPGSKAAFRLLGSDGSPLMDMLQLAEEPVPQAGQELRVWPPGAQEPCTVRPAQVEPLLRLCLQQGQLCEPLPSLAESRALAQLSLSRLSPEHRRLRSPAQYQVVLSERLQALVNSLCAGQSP
UniProt Q13564: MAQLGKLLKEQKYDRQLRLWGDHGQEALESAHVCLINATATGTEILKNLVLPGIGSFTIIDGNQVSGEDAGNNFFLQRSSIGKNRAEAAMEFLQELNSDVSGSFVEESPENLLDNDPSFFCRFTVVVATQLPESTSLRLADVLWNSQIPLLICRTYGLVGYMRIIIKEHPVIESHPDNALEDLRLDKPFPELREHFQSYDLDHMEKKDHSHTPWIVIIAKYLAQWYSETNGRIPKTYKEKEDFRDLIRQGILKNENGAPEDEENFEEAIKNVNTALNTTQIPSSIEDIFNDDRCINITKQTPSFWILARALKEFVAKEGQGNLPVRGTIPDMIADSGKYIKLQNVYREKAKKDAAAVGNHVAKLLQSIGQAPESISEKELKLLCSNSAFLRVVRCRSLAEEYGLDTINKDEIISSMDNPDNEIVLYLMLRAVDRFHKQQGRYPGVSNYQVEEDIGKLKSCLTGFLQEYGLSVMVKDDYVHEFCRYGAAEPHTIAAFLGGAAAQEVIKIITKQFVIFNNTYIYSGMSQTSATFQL
UniProt Q99733: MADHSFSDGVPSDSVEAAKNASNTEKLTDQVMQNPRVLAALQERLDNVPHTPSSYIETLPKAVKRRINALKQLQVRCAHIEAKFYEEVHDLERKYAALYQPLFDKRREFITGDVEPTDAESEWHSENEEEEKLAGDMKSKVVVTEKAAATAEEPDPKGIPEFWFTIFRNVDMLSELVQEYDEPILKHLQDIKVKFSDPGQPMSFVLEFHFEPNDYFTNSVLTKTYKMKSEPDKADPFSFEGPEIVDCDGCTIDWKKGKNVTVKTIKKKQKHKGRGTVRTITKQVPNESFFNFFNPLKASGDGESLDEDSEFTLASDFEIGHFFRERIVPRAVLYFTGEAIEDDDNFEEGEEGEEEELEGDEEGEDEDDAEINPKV
UniProt P55160: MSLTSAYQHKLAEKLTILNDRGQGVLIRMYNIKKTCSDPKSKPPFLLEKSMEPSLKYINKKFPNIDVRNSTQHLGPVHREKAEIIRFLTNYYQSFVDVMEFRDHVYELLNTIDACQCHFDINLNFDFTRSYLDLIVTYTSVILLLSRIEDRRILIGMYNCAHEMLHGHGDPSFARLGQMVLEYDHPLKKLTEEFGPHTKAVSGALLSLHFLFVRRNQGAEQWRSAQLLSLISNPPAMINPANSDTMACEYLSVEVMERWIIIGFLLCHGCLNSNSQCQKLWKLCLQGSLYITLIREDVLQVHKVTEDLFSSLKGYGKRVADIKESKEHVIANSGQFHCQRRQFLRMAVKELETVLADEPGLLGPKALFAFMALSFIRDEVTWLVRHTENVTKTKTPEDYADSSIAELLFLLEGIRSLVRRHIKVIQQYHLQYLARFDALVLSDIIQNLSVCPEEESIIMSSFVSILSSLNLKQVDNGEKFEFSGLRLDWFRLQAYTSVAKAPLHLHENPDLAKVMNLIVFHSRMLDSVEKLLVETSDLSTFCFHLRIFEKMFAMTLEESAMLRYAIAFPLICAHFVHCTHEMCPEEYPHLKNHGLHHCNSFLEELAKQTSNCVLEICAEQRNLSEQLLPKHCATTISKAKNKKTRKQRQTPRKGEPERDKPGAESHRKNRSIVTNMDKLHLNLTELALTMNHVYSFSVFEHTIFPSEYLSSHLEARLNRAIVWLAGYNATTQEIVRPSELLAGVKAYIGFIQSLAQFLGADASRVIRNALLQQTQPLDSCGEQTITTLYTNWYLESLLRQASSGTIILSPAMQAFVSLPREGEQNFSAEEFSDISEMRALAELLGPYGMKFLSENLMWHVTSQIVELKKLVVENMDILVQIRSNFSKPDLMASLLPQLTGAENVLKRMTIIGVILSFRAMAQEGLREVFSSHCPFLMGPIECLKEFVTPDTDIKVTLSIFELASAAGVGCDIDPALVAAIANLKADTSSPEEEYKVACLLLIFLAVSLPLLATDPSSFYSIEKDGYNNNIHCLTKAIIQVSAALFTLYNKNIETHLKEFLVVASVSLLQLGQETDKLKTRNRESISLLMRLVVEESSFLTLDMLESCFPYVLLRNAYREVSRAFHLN
UniProt Q15596: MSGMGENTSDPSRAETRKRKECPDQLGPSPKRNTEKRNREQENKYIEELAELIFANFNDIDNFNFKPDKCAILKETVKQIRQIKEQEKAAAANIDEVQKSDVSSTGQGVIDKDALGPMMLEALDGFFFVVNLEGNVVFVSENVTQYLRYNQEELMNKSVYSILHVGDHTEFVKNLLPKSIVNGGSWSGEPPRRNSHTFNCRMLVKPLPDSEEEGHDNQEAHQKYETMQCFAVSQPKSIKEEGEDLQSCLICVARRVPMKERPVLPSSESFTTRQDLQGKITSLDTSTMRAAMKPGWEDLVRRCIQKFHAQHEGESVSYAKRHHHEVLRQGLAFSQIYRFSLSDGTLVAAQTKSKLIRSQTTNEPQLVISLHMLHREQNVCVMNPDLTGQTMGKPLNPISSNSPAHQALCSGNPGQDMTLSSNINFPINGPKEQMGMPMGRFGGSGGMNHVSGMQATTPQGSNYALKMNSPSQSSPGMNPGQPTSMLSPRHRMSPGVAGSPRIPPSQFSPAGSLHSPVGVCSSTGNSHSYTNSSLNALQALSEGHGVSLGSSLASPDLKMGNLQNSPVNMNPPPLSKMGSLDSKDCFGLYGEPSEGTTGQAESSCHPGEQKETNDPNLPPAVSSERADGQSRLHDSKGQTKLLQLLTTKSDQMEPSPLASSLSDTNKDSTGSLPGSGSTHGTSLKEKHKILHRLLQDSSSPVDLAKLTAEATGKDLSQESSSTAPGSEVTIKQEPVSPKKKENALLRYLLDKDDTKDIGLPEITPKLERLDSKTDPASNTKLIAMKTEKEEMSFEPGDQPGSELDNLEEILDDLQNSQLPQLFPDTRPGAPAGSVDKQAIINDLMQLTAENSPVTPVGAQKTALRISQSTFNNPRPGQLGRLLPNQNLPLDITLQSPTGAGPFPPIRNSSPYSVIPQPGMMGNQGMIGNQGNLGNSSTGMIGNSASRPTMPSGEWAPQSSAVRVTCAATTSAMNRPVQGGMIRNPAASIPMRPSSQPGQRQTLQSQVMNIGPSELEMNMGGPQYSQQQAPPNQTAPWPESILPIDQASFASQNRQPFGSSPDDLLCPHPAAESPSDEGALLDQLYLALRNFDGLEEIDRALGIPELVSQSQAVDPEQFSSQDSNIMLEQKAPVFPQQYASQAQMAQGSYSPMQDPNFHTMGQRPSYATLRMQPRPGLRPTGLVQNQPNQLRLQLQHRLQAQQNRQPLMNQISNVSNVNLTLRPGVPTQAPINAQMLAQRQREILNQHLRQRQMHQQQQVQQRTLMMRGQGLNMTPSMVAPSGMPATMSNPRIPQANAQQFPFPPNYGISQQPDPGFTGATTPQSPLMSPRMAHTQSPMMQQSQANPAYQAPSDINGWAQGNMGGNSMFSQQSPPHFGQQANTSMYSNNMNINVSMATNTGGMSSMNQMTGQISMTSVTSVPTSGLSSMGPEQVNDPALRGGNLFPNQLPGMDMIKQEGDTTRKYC

Legend:
Assay in all cases: log2 fold change, soluble protein after heating vs DMSO (PISA); higher = thermal stabilisation; K562 lysate, 10 uM; active = over 0.2 and 3.5 SD of the protein, either way, in both replicates (recomputed)
lapatinib = compound: CS(=O)(=O)CCNCc1ccc(-c2ccc3ncnc(Nc4ccc(OCc5cccc(F)c5)c(Cl)c4)c3c2)o1 [lapatinib]
How it was run: (§1)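 Pellets of K562 cells were dounce-homogenised in PBS pH 7.4 with 1 mM MgCl2, and the crude extract was held at 1 mg/mL protein for a 30 min treatment with 10 μM compound. Aliquots were heated for 3 min over 48°C-58°C and pooled before NP-40 was added to 0.5% at 4°C. The supernatant from 21,000xg for 90 min was quantified by TMTpro 16plex LC-MS/MS with channel sums equalised. Values are reported from duplicates as log-two fold change in thermal stability relative to solvent controls.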

pictilisib = compound: CS(=O)(=O)N1CCN(Cc2cc3nc(-c4cccc5[nH]ncc45)nc(N4CCOCC4)c3s2)CC1 [pictilisib]
How it was run: as §1

crizotinib = compound: C[C@@H](Oc1cc(-c2cnn(C3CCNCC3)c2)cnc1N)c1c(Cl)ccc(F)c1Cl [crizotinib]
How it was run: as §1

[1] = compound: C[C@H](C1=CC=C(C=C1)C(=O)NC2=C3C=CNC3=NC=C2)N
How it was run: as §1

duvelisib = compound: C[C@H](Nc1ncnc2nc[nH]c12)c1cc2cccc(Cl)c2c(=O)n1-c1ccccc1 [duvelisib]
How it was run: as §1

gandotinib = compound: Cc1cc(Nc2cc(CN3CCOCC3)c3nc(C)c(Cc4ccc(Cl)cc4F)n3n2)n[nH]1 [gandotinib]
How it was run: as §1

tozasertib = compound: Cc1cc(Nc2cc(N3CCN(C)CC3)nc(Sc3ccc(NC(=O)C4CC4)cc3)n2)n[nH]1 [tozasertib]
How it was run: as §1

doramapimod = compound: Cc1ccc(-n2nc(C(C)(C)C)cc2NC(=O)Nc2ccc(OCCN3CCOCC3)c3ccccc23)cc1 [doramapimod]
How it was run: as §1

bafetinib = compound: Cc1ccc(NC(=O)c2ccc(CN3CC[C@H](N(C)C)C3)c(C(F)(F)F)c2)cc1Nc1nccc(-c2cncnc2)n1 [bafetinib]
How it was run: as §1

[2] = compound: Cc1cccc(CC(=O)N2CCc3c2ccc(-c2cn(C)c4ncnc(N)c24)c3F)n1
How it was run: as §1

Measured: log2 fold change

NADK2 (UniProt Q4G0N4)
inactive: lapatinib 0.02 | pictilisib -0.028 | crizotinib -0.005 | [1] -0.04 | duvelisib 0.03 | gandotinib 0.004 | tozasertib 0.012 | doramapimod -0.002 | bafetinib 0.01 | [2] 0.017

MYL12B (UniProt O14950)
inactive: lapatinib 0.006 | pictilisib -0.016 | crizotinib -0.014 | [1] 0.141 | duvelisib 0 | gandotinib -0.024 | tozasertib -0.008 | doramapimod 0.007 | bafetinib 0.032 | [2] -0.038

NANP (UniProt Q8TBE9)
inactive: lapatinib -0.037 | pictilisib -0.09 | crizotinib 0.008 | [1] -0.124 | duvelisib -0.006 | gandotinib 0.065 | tozasertib 0.037 | doramapimod 0.004 | bafetinib -0.045 | [2] 0.101

NCOA7 (UniProt Q8NI08)
inactive: lapatinib 0.009 | pictilisib -0.001 | crizotinib -0.028 | [1] 0.015 | duvelisib -0.006 | gandotinib -0.015 | tozasertib 0.024 | doramapimod 0.005 | bafetinib -0.04 | [2] 0.036

NCL (UniProt P19338)
inactive: lapatinib -0.022 | pictilisib 0.011 | crizotinib 0.016 | [1] 0.026 | duvelisib 0.035 | gandotinib -0.024 | tozasertib 0.006 | doramapimod -0.018 | bafetinib 0.032 | [2] -0.01

NAA20 (UniProt P61599)
inactive: lapatinib 0.006 | pictilisib -0.058 | crizotinib -0.074 | [1] 0.006 | duvelisib 0.04 | gandotinib -0.04 | tozasertib -0.027 | doramapimod 0.038 | bafetinib -0.025 | [2] -0.021

NAPRT (UniProt Q6XQN6)
inactive: lapatinib 0.008 | pictilisib 0.05 | crizotinib 0.046 | [1] 0.03 | duvelisib 0.019 | gandotinib -0.06 | tozasertib 0.039 | doramapimod 0.034 | bafetinib 0.034 | [2] -0.074

NAE1 (UniProt Q13564)
inactive: lapatinib -0.013 | pictilisib -0.023 | crizotinib -0.007 | [1] -0.016 | duvelisib -0.002 | gandotinib -0.025 | tozasertib -0.021 | doramapimod 0.001 | bafetinib 0.046 | [2] -0.011

NAP1L4 isoform 2 (UniProt Q99733)
inactive: lapatinib 0.044 | pictilisib 0.034 | crizotinib 0.019 | [1] 0.048 | duvelisib -0.012 | gandotinib -0.041 | tozasertib 0.01 | doramapimod -0.047 | bafetinib 0.043 | [2] -0.048

NCKAP1L (UniProt P55160)
inactive: lapatinib 0 | pictilisib 0 | crizotinib -0.061 | [1] -0.002 | duvelisib 0.02 | gandotinib 0.025 | tozasertib 0.018 | doramapimod -0.011 | bafetinib -0.324 | [2] 0.017

NAGLU (UniProt P54802)
inactive: lapatinib 0.032 | pictilisib -0.026 | crizotinib -0.09 | [1] 0.013 | duvelisib -0.003 | gandotinib 0.002 | tozasertib 0.022 | doramapimod 0.053 | bafetinib 0.031 | [2] -0.012

NCOA2 (UniProt Q15596)
inactive: lapatinib -0.113 | pictilisib -0.174 | crizotinib -0.062 | [1] -0.028 | duvelisib 0.05 | gandotinib 0 | tozasertib 0.062 | doramapimod -0.029 | bafetinib -0.007 | [2] -0.038

NAA15, A0A0B4J1W3
inactive: lapatinib -0.023 | pictilisib 0.001 | crizotinib 0.007 | [1] 0.013 | duvelisib 0.019 | gandotinib -0.1 | tozasertib -0.053 | doramapimod -0.042 | bafetinib -0.016 | [2] 0.012

MYO6 isoform 6 (UniProt Q9UM54)
inactive: lapatinib -0.001 | pictilisib 0.006 | crizotinib -0.042 | [1] -0.02 | duvelisib 0.031 | gandotinib -0.02 | tozasertib 0.025 | doramapimod 0.01 | bafetinib -0.056 | [2] -0.004
